Experiment [1] deals with Flag-FBXW7β (human). Kind of experiment: co-IP.
Experiment [2] has as its target Flag-FBXW7γ (human). In words: co-IP.

Results are given in words; binding and its absence hold for the method and conditions named. Binding seen in cells or lysates may run through a third protein.

B1: FBXO45 (endogenous) (protein, UniProt P0C2W1 1-286)
chain: MAAPAPGAGAASGGAGCSGGGAGAGAGSGSGAAGAGGRLPSRVLELVFSYLELSELRSCALVCKHWYRCLHGDENSEVWRSLCARSLAEEALRTDILCNLPSYKAKIRAFQHAFSTNDCSRNVYIKKNGFTLHRNPIAQSTDGARTKIGFSEGRHAWEVWWEGPLGTVAVIGIATKRAPMQCQGYVALLGSDDQSWGWNLVDNNLLHNGEVNGSFPQCNNAPKYQIGERIRVILDMEDKTLAFERGYEFLGVAFRGLPKVCLYPAVSAVYGNTEVTLVYLGKPLDG
In the case of B1, the binding entry in experiment [1] and in experiment [2] was “no binding” throughout.
